PubChem BioAssay AID1259254 – NCATS | 2017
Here is one part, drawn at random, of about 59,000 reagents. Of all reagents, about 1,550 (2.6%) are marked active. 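G2 share is only a proxy for re-replication; each gene was hit by three separate siRNAs, and active genes were retested.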 Reagents against one gene are numbered here. Further read-outs or replicates are left out here. No sequences are given here. Not stated in the record: the amount of reagent.

- Purpose: 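Gene knock-downs that lead to re-replication, shown by excess G2 DNA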 (primary screen)
- Cells: human HCT116 colorectal cancer cells
- Knock-down reagent: single siRNA against human genes
- Time to read-out: 3 days
- Measurement: 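Imaged Hoechst DNA stain sorts each cell into a cycle phase by DNA amount; per plate, G2 fraction set to 0% for non-targeting and 100% for GMNN siRNA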
- Reading the numbers: G2 robust z-score and G2 cells, % of GMNN control: higher = more G2 cells, more excess DNA replication
- Active means: 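An siRNA counts as active if its G2 robust z-score lies at least 5 MADs above the screen median; here such calls match roughly 38% of GMNN control or more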

RPL21P7 #1 showed G2 robust z-score 1.52; G2 cells, % of GMNN control 13.7; inactive.
For RPL21P7 #2, the values are G2 robust z-score 0.977; G2 cells, % of GMNN control 9.84; inactive.
For RPL21P7 #3, the entry reads G2 robust z-score 0.32; G2 cells, % of GMNN control 5.22; inactive.
OR6F1 #1 scored G2 robust z-score 4.37; G2 cells, % of GMNN control 33.7; inactive.
For OR6F1 #2, the entry reads G2 robust z-score -0.0383; G2 cells, % of GMNN control 2.7; inactive.
Knock-down of OR6F1 #3 came out at: G2 robust z-score 0.318; G2 cells, % of GMNN control 5.21; inactive.
Against TIMM8A #1, the values are G2 robust z-score -0.661; G2 cells, % of GMNN control -1.68; inactive.
With knock-down of TIMM8A #2, the record shows G2 robust z-score 0.869; G2 cells, % of GMNN control 9.08; inactive.
Depletion of TIMM8A #3 came out at: G2 robust z-score 1.56; G2 cells, % of GMNN control 13.9; inactive.
Silencing of CR1L #1 gave: G2 robust z-score -0.348; G2 cells, % of GMNN control 0.517; inactive.
Against CR1L #2, the entry reads G2 robust z-score -1.66; G2 cells, % of GMNN control -8.73; inactive.
With knock-down of CR1L #3, the record shows G2 robust z-score -1; G2 cells, % of GMNN control -4.08; inactive.
Depletion of TM2D1 #1 came out at: G2 robust z-score -0.742; G2 cells, % of GMNN control -2.25; inactive.
TM2D1 #2 showed G2 robust z-score -0.835; G2 cells, % of GMNN control -2.91; inactive.
Silencing of TM2D1 #3 gave: G2 robust z-score 0.448; G2 cells, % of GMNN control 6.12; inactive.

Targets above whose gene name starts with T or t:
TIMM8A #1 — G2 robust z-score = -0.661; G2 cells, % of GMNN control = -1.68; call = inactive
TIMM8A #2 — G2 robust z-score = 0.869; G2 cells, % of GMNN control = 9.08; call = inactive
TIMM8A #3 — G2 robust z-score = 1.56; G2 cells, % of GMNN control = 13.9; call = inactive
TM2D1 #1 — G2 robust z-score = -0.742; G2 cells, % of GMNN control = -2.25; call = inactive
TM2D1 #2 — G2 robust z-score = -0.835; G2 cells, % of GMNN control = -2.91; call = inactive
TM2D1 #3 — G2 robust z-score = 0.448; G2 cells, % of GMNN control = 6.12; call = inactive

The results go on.
After knock-down of KIR2DS1 #1 the results were G2 robust z-score 1.96; G2 cells, % of GMNN control 16.7; inactive.
Knock-down of KIR2DS1 #2 resulted in: G2 robust z-score -0.0314; G2 cells, % of GMNN control 2.75; inactive.
After knock-down of KIR2DS1 #3 the results were G2 robust z-score 1.37; G2 cells, % of GMNN control 12.6; inactive.
After knock-down of F2R #1, the screen gave G2 robust z-score -0.0686; G2 cells, % of GMNN control 2.48; inactive.
For F2R #2, the entry reads G2 robust z-score -0.549; G2 cells, % of GMNN control -0.893; inactive.
Knock-down of F2R #3 resulted in: G2 robust z-score 4.68; G2 cells, % of GMNN control 35.9; inactive.
MNX1 #1 gave G2 robust z-score -1.17; G2 cells, % of GMNN control -5.25; inactive.
Knock-down of MNX1 #2 gave: G2 robust z-score -1.18; G2 cells, % of GMNN control -5.36; inactive.
After knock-down of MNX1 #3, the record shows G2 robust z-score -0.205; G2 cells, % of GMNN control 1.53; inactive.
